Data published in patent publication US20250084044A1, “PROTOPORPHYRINOGEN OXIDASE INHIBITORS” (Enko Chem, Inc., priority 2022, published 2025).
pIC50: −log10 of the molar value. Like-named read-outs stand apart in the source and are kept apart here. Some entries share one result that the patent states for a list of compounds.

Target: T1, Amaranthus tuberculantum Protoporphyrinogen Oxidase (AmPPO) (Amaranthus tuberculatus, UniProt Q0NZW9)
T1 construct: fused on or other part: C-terminal His tag (pET28b vector)
T1 sequence (Q0NZW9 1-534): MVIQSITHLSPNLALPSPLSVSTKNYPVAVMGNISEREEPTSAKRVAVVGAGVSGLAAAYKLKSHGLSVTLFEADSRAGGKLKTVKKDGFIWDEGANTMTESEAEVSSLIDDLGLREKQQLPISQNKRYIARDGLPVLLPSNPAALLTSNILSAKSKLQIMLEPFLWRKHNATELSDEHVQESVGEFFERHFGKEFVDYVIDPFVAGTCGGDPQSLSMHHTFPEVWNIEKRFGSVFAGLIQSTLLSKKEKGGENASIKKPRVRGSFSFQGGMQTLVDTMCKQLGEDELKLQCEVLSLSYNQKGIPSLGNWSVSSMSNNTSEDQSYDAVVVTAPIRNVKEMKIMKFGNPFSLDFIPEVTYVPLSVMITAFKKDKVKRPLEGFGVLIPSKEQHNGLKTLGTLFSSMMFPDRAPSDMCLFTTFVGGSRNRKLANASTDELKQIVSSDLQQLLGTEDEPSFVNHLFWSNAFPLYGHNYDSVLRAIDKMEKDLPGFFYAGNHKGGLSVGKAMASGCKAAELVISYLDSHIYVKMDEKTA
Assay: PPO in vitro assay (AmPPO)
Type: biochemical

Compound | pIC50 (Example 17b) | pIC50
CO[C@H](C(=O)O)N1C(=O)C(F)(F)Oc2cc(F)c(-c3c(F)c(F)c(F)c(F)c3F)cc21 [Compound 188, (R)-2-methoxy-2-(2,2,7-trifluoro-3-oxo-6-(perfluorophenyl)-2,3-dihydro-4H-benzo[b][1,4]oxazin-4-yl)acetic acid] | > 6.00 | 
COC(=O)[C@H](C)N1C(=O)C(F)(F)Oc2cc(C)c(-c3c(F)c(F)c(F)c(F)c3F)cc21 [Compound 181, methyl (S)-2-(2,2-difluoro-7-methyl-3-oxo-6-(perfluorophenyl)-2,3-dihydro-4H-benzo[b][1,4]oxazin-4-yl)propanoate] | > 7.00 | 
O=C(O)CN1C(=O)C(F)(F)Oc2cc(F)c(-c3c(F)c(F)c(F)c(F)c3F)cc21 [Compound 2, 2-(2,2,7-trifluoro-3-oxo-6-(perfluorophenyl)-2,3-dihydro-4H-benzo[b][1,4]oxazin-4-yl)acetic acid] | > 7.00 | > 7.00
COc1c(F)c(F)c(-c2cc3c(cc2F)OC(F)(F)C(=O)N3CC(=O)O)c(F)c1F [Compound 104, 2-(2,2,7-trifluoro-3-oxo-6-(2,3,5,6-tetrafluoro-4-methoxyphenyl)-2,3-dihydro-4H-benzo[b][1,4]oxazin-4-yl)acetic acid] | > 7.00 | > 7.00
COC(=O)CN(C)C(=O)CN1C(=O)C(F)(F)Oc2cc(F)c(-c3c(F)c(F)c(F)c(F)c3F)cc21 [Compound 84, methyl N-methyl-N-(2-(2,2,7-trifluoro-3-oxo-6-(perfluorophenyl)-2,3-dihydro-4H-benzo[b][1,4]oxazin-4-yl)acetyl)glycinate] | > 7.00 | > 7.00
COC(=O)C1CN(C(=O)CN2C(=O)C(F)(F)Oc3cc(F)c(-c4cc(F)c(F)c(F)c4F)cc32)C1 [Compound 168, methyl 1-(2-(2,2,7-trifluoro-3-oxo-6-(2,3,4,5-tetrafluorophenyl)-2,3-dihydro-4H-benzo[b][1,4]oxazin-4-yl)acetyl)azetidine-3-carboxylate] | > 7.00 | 
COC(=O)CCCN1C(=O)C(F)(F)Oc2cc(F)c(-c3c(F)c(F)c(F)c(F)c3F)cc21 [Compound 16, methyl 4-(2,2,7-trifluoro-3-oxo-6-(perfluorophenyl)-2,3-dihydro-4H-benzo[b][1,4]oxazin-4-yl)butanoate] | > 7.00 | > 7.00
C[C@@H](C(=O)O)N1C(=O)C2(CC2)Oc2cc(F)c(-c3c(F)c(F)c(F)c(F)c3F)cc21 [Compound 33, (S)-2-(7-fluoro-3-oxo-6-(perfluorophenyl)spiro[benzo[b][1,4]oxazine-2,1′-cyclopropan]-4(3H)-yl)propanoic acid] | > 7.00 | > 7.00
COC(=O)CCNC(=O)[C@H](C)N1C(=O)C(F)(F)Oc2cc(F)c(-c3c(F)c(F)c(F)c(F)c3F)cc21 [Compound 130, methyl (S)-3-(2-(2,2,7-trifluoro-3-oxo-6-(perfluorophenyl)-2,3-dihydro-4H-benzo[b][1,4]oxazin-4-yl)propanamido)propanoate] | > 7.00 | > 7.00
CN(CCC(=O)O)C(=O)CN1C(=O)C(F)(F)Oc2cc(F)c(-c3c(F)c(F)c(F)c(F)c3F)cc21 [Compound 81, 3-(N-methyl-2-(2,2,7-trifluoro-3-oxo-6-(perfluorophenyl)-2,3-dihydro-H-benzo[b][1,4]oxazin-4-yl)acetamido)propanoic acid] | > 7.00 | > 7.00
CC(=O)OCC(=O)CN1C(=O)C(F)(F)Oc2cc(F)c(-c3c(F)c(F)c(F)c(F)c3F)cc21 [Compound 144, 2-oxo-3-(2,2,7-trifluoro-3-oxo-6-perfluorophenyl)-2,3-dihydro-4H-benzo[b][1,4]oxazin-4-yl)propyl acetate] | > 7.00 | > 7.00
O=C(O)C[C@H]1C[C@@H](CN2C(=O)C(F)(F)Oc3cc(F)c(-c4c(F)c(F)c(F)c(F)c4F)cc32)C1 [Compound 139, 2-((1s,3s)-3-((2,2,7-trifluoro-3-oxo-6-(perfluorophenyl)-2,3-dihydro-4H-benzo[b][1,4]oxazin-4-yl)methyl)cyclobutyl)acetic acid] | > 7.00 | > 7.00
